{"sequences": {"note": "By UniProt entry, the sequences of proteins in these tests, tags left out. Where a name states a change or a piece, a line headed by the entry shows the natural chain unless it says otherwise.", "UniProt O43186": "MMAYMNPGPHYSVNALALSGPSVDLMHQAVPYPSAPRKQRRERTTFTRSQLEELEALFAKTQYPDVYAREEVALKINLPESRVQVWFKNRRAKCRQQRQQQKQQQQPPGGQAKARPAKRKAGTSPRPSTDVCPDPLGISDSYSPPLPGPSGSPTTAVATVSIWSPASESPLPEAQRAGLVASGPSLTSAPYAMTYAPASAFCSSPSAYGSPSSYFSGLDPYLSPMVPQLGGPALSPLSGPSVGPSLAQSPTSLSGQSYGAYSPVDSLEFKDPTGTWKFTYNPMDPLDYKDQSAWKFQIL"}, "source": "paper PMC7862700", "note": "The entries are a selection whose mix differs from that of the whole data set. At the low end of the ranking the order means little.", "data": [{"biological_target": "T1, FEV (UniProt Q99581)", "T1 sequence": "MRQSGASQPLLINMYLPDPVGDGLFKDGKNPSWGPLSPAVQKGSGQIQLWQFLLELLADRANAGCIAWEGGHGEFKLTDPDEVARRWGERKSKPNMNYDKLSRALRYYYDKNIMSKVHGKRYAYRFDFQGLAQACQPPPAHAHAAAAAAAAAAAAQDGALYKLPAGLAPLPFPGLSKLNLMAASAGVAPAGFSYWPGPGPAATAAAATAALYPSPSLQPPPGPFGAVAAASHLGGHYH", "assay": "DAPPL (digital affinity profiling via proximity ligation, sequencing)", "conditions": "10 mM Tris-HCl pH 7.5, 50 mM NaCl, 1 mM DTT, 4% glycerol, room temperature, 30 min; GST-TFs on glutathione beads, 16-mer random dsDNA library, 0.1% …; high values mean tight binding; double strand, one strand shown; scale: fold enrichment (6-mer frequency, TF over GST control)", "values": [{"sequence": "CGACAG", "binding signal": 0.958}, {"sequence": "TGAAAT", "binding signal": 0.945}, {"sequence": "GTGATG", "binding signal": 0.932}, {"sequence": "GGCTGC", "binding signal": 0.929}, {"sequence": "GGCACC", "binding signal": 0.808}, {"sequence": "GGCTCG", "binding signal": 0.997}, {"sequence": "GTCCAA", "binding signal": 0.907}, {"sequence": "TCATTG", "binding signal": 0.984}, {"sequence": "CCCCAG", "binding signal": 0.985}, {"sequence": "GACCCA", "binding signal": 0.875}, {"sequence": "CCGTCA", "binding signal": 1.19}, {"sequence": "ATAGCG", "binding signal": 0.962}, {"sequence": "CGGCTG", "binding signal": 0.959}, {"sequence": "GCATTT", "binding signal": 1.57}, {"sequence": "GCAGGT", "binding signal": 0.821}, {"sequence": "GCATCT", "binding signal": 0.998}, {"sequence": "AGGCCC", "binding signal": 0.948}, {"sequence": "GCGAAC", "binding signal": 0.927}, {"sequence": "GATCAA", "binding signal": 0.956}, {"sequence": "TACATA", "binding signal": 1.21}, {"sequence": "TCGAGT", "binding signal": 0.906}, {"sequence": "CAGAAG", "binding signal": 0.722}, {"sequence": "TCGCGT", "binding signal": 0.914}, {"sequence": "AGGTTC", "binding signal": 0.843}, {"sequence": "AGAGAT", "binding signal": 0.879}, {"sequence": "AGTACG", "binding signal": 0.885}, {"sequence": "TGATAG", "binding signal": 0.942}, {"sequence": "GTGTTG", "binding signal": 0.892}, {"sequence": "AGAACA", "binding signal": 0.967}, {"sequence": "TGCGTC", "binding signal": 0.943}, {"sequence": "GGCCTG", "binding signal": 0.993}, {"sequence": "TGTAGA", "binding signal": 0.863}, {"sequence": "TCCAGA", "binding signal": 0.85}, {"sequence": "GGTTAA", "binding signal": 0.836}, {"sequence": "TGCAGC", "binding signal": 1.08}, {"sequence": "TAACGT", "binding signal": 0.909}, {"sequence": "CACTAG", "binding signal": 0.972}, {"sequence": "GTGGTT", "binding signal": 0.876}, {"sequence": "AGACTC", "binding signal": 0.952}]}, {"biological_target": "CRX (UniProt O43186)", "assay": "DAPPL (digital affinity profiling via proximity ligation, sequencing)", "conditions": "10 mM Tris-HCl pH 7.5, 50 mM NaCl, 1 mM DTT, 4% glycerol, room temperature, 30 min; GST-TFs on glutathione beads, 16-mer random dsDNA library, 0.1% …; high values mean tight binding; double strand, one strand shown; scale: fold enrichment (6-mer frequency, TF over GST control)", "values": [{"sequence": "CGACAG", "binding signal": 0.741}, {"sequence": "TGAAAT", "binding signal": 1.03}, {"sequence": "GTGATG", "binding signal": 0.688}, {"sequence": "GGCTGC", "binding signal": 0.692}, {"sequence": "GGCACC", "binding signal": 0.549}, {"sequence": "GGCTCG", "binding signal": 0.873}, {"sequence": "GTCCAA", "binding signal": 0.715}, {"sequence": "TCATTG", "binding signal": 0.892}, {"sequence": "CCCCAG", "binding signal": 0.943}, {"sequence": "GACCCA", "binding signal": 0.694}, {"sequence": "CCGTCA", "binding signal": 0.863}, {"sequence": "ATAGCG", "binding signal": 0.865}, {"sequence": "CGGCTG", "binding signal": 0.791}, {"sequence": "GCATTT", "binding signal": 1.16}, {"sequence": "GCAGGT", "binding signal": 0.667}, {"sequence": "GCATCT", "binding signal": 0.962}, {"sequence": "AGGCCC", "binding signal": 0.812}, {"sequence": "GCGAAC", "binding signal": 0.8}, {"sequence": "GATCAA", "binding signal": 1.52}, {"sequence": "TACATA", "binding signal": 1.27}, {"sequence": "TCGAGT", "binding signal": 0.928}, {"sequence": "CAGAAG", "binding signal": 0.825}, {"sequence": "TCGCGT", "binding signal": 0.881}, {"sequence": "AGGTTC", "binding signal": 0.769}, {"sequence": "AGAGAT", "binding signal": 1.38}, {"sequence": "AGTACG", "binding signal": 0.76}, {"sequence": "TGATAG", "binding signal": 1.01}, {"sequence": "GTGTTG", "binding signal": 0.698}, {"sequence": "AGAACA", "binding signal": 1.22}, {"sequence": "TGCGTC", "binding signal": 0.695}, {"sequence": "GGCCTG", "binding signal": 0.825}, {"sequence": "TGTAGA", "binding signal": 0.855}, {"sequence": "TCCAGA", "binding signal": 1.5}, {"sequence": "GGTTAA", "binding signal": 1.31}, {"sequence": "TGCAGC", "binding signal": 0.791}, {"sequence": "TAACGT", "binding signal": 1.16}, {"sequence": "CACTAG", "binding signal": 0.915}, {"sequence": "GTGGTT", "binding signal": 0.708}, {"sequence": "AGACTC", "binding signal": 0.908}]}, {"biological_target": "T2, ELF5 (UniProt Q9UKW6-2)", "T2 sequence": "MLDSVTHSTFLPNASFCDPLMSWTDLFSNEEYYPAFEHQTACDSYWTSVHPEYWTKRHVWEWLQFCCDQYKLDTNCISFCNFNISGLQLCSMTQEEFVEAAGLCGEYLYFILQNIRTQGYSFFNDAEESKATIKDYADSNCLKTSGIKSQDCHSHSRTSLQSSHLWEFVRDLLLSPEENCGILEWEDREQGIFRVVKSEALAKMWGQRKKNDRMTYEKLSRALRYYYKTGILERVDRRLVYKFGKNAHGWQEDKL", "assay": "DAPPL (digital affinity profiling via proximity ligation, sequencing)", "conditions": "10 mM Tris-HCl pH 7.5, 50 mM NaCl, 1 mM DTT, 4% glycerol, room temperature, 30 min; GST-TFs on glutathione beads, 16-mer random dsDNA library, 0.1% …; high values mean tight binding; double strand, one strand shown; scale: fold enrichment (6-mer frequency, TF over GST control)", "values": [{"sequence": "CGACAG", "binding signal": 0.917}, {"sequence": "TGAAAT", "binding signal": 0.933}, {"sequence": "GTGATG", "binding signal": 0.94}, {"sequence": "GGCTGC", "binding signal": 0.874}, {"sequence": "GGCACC", "binding signal": 0.786}, {"sequence": "GGCTCG", "binding signal": 0.966}, {"sequence": "GTCCAA", "binding signal": 0.929}, {"sequence": "TCATTG", "binding signal": 0.959}, {"sequence": "CCCCAG", "binding signal": 0.963}, {"sequence": "GACCCA", "binding signal": 0.859}, {"sequence": "CCGTCA", "binding signal": 1.22}, {"sequence": "ATAGCG", "binding signal": 0.928}, {"sequence": "CGGCTG", "binding signal": 0.879}, {"sequence": "GCATTT", "binding signal": 1.4}, {"sequence": "GCAGGT", "binding signal": 0.818}, {"sequence": "GCATCT", "binding signal": 0.961}, {"sequence": "AGGCCC", "binding signal": 0.876}, {"sequence": "GCGAAC", "binding signal": 0.842}, {"sequence": "GATCAA", "binding signal": 0.899}, {"sequence": "TACATA", "binding signal": 1.16}, {"sequence": "TCGAGT", "binding signal": 0.868}, {"sequence": "CAGAAG", "binding signal": 0.73}, {"sequence": "TCGCGT", "binding signal": 0.878}, {"sequence": "AGGTTC", "binding signal": 0.901}, {"sequence": "AGAGAT", "binding signal": 0.899}, {"sequence": "AGTACG", "binding signal": 0.953}, {"sequence": "TGATAG", "binding signal": 0.963}, {"sequence": "GTGTTG", "binding signal": 0.924}, {"sequence": "AGAACA", "binding signal": 0.997}, {"sequence": "TGCGTC", "binding signal": 0.958}, {"sequence": "GGCCTG", "binding signal": 0.924}, {"sequence": "TGTAGA", "binding signal": 0.891}, {"sequence": "TCCAGA", "binding signal": 0.879}, {"sequence": "GGTTAA", "binding signal": 0.932}, {"sequence": "TGCAGC", "binding signal": 0.998}, {"sequence": "TAACGT", "binding signal": 0.959}, {"sequence": "CACTAG", "binding signal": 0.91}, {"sequence": "GTGGTT", "binding signal": 0.985}, {"sequence": "AGACTC", "binding signal": 0.888}]}]}
